US20110224250A1, “ISOQUINOLINE DERIVATIVE, AND PDE INHIBITOR COMPRISING SAME AS ACTIVE INGREDIENT” (priority 2008, published 2011)
Some of these results come from one statement about several compounds together.

System: total number of leukocytes in broncoalveolar lavage fluid (BALF)
Test: LPS-induced acute pulmonary inflammation in rats
Type: in vivo
Settings: rat, 3 mg/kg orally one hour before LPS inhalation, BALF 3 hours after LPS-inhalation

Compound	inhibitory effect (rate of inhibition of total number of leukocytes in BALF)
CNc1ccc(-c2ccc3cnccc3c2)c2c(Cl)c(C(F)(F)F)nn12 [Example 56, 3-Chloro-4-(isoquinolin-6-yl)-N-methyl-2-trifluoromethylpyrazolo[1,5-a]pyridine-7-amine]	not less than 50%
CNc1ccc(-c2ccc3cnccc3c2)n2c(Cl)c(C(F)(F)F)nc12 [Example 58, 3-Chloro-5-(isoquinolin-6-yl)-N-methyl-2-trifluoromethylimidazo[1,2a]pyridine-8-amine]	not less than 50%
COc1ccc(-c2ccc3cnccc3c2)c2c(Cl)c(C(F)(F)F)nn12 [Example 51, 6-(3-Chloro-7-methoxy-2-trifluoromethylpyrazolo[1,5-a]pyridin-4-yl)isoquinoline]	not less than 50%
COc1ccc(-c2ccc3cnccc3c2)n2c(Cl)c(C(F)(F)F)nc12 [Example 57, 6-(3-Chloro-8-methoxy-2-trifluoromethylimidazo[1,2-a]pyridin-5-yl)isoquinoline]	not less than 50%
COc1ccc(-c2ccc3cnccc3c2)c2cc(C(F)(F)F)nn12 [Example 47, 6-(7-Methoxy-2-trifluoromethylpyrazolo[1,5-a]pyridin-4-yl)isoquinoline]	not less than 50%
COc1ccc(-c2ccc3cnccc3c2Cl)c2cc(C(F)(F)F)nn12 [Example 50, 5-Chloro-6-(7-methoxy-2-trifluoromethylpyrazolo[1,5-a]pyridin-4-yl)isoquinoline]	not less than 50%
